Laboratory results: PubChem BioAssay AID1224830 (NIAID, 2016)
Purpose: 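Regulators of TLR4 signalling towards TNF-alpha in macrophage-like cells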 (primary screen). System: human THP-1 monocytic leukaemia cells, TNF dual-luciferase reporter clone, PMA-differentiated to macrophage-like cells. Reagent: siRNA pool against human genes, 50 nM. Timing: LPS for 4 h, given about 3 days after siRNA transfection. Challenge: bacterial LPS (TLR4 ligand), 10 ng/ml. Measurement: 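TNF firefly reporter luminescence divided by renilla, normalised to the plate median, then turned into a robust z-score for each replicate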. Scale: TNF reporter robust z-score: higher = stronger TNF reporter response to LPS. Rule for the call: 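Each well counts as active if its z-score is over 2.8 or under -1.5; controls are left without a call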.
The deposit covers about 18,000 reagents; below is a part drawn at random. In the full data, about 2,900 (16%) got an active call. 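Calls are made per well; low scores hint the gene aids the LPS response, high scores that it dampens it.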 A number with no mark means an inactive call. Repeated entries: four replicate wells of each siRNA pool.

no.	Gene	TNF reporter robust z-score
1	ZNF625	2.72
2	ZNF625	3.82 (active)
3	ZNF625	2.5
4	ZNF625	3.69 (active)
5	ABCA4	-0.38
6	ABCA4	1.18
7	ABCA4	0.2
8	ABCA4	-1.01
9	SNAP25	0.44
10	SNAP25	0.81
11	SNAP25	1.82
12	N4BP3	0.01
13	N4BP3	-0.75
14	N4BP3	-1.51 (active)
15	N4BP3	-0.99
16	PRKCA	1.88
17	PRKCA	0.82
18	PRKCA	1.3
19	PRKCA	2.36
20	NEDD4L	-1.28
21	NEDD4L	0.37
22	NEDD4L	0.32
23	NEDD4L	0.77
24	MRPL3	0.11
25	MRPL3	-0.78
26	MRPL3	-0.47
27	MRPL3	-0.58
28	PPIG	-0.92
29	PPIG	-0.38
30	PPIG	-0.29
31	PPIG	0.11
32	COL4A4	3.41 (active)
33	COL4A4	2.55
34	COL4A4	0.35
35	COL4A4	3.32 (active)
36	KCTD16	0
37	KCTD16	-0.23
38	KCTD16	0.07
39	KCTD16	1.29
40	GPR107	-0.41
41	GPR107	-0.29
42	GPR107	-0.32
43	GPR107	-0.49
44	CCM2L	-0.27
45	CCM2L	3.91 (active)
46	CCM2L	0.27
47	CCM2L	-0.28
48	COLEC11	0.42
49	COLEC11	0.65
50	COLEC11	0.34
51	COLEC11	0.17
52	HAPLN2	-0.73
53	HAPLN2	-0.91
54	HAPLN2	-1.14
55	HAPLN2	0.12
56	FADD	-0.67
57	FADD	1.23
58	FADD	-0.07
59	FADD	2.33
60	FER1L5	-0.05
61	FER1L5	0.05
62	FER1L5	0.12
63	FER1L5	1.59
64	SYNDIG1	-0.89
65	SYNDIG1	-1.72 (active)
66	SYNDIG1	-1.51 (active)
67	SYNDIG1	-1.47

Next part; the last 15 above are carried over.
no.	Gene	TNF reporter robust z-score
53	HAPLN2	-0.91
54	HAPLN2	-1.14
55	HAPLN2	0.12
56	FADD	-0.67
57	FADD	1.23
58	FADD	-0.07
59	FADD	2.33
60	FER1L5	-0.05
61	FER1L5	0.05
62	FER1L5	0.12
63	FER1L5	1.59
64	SYNDIG1	-0.89
65	SYNDIG1	-1.72 (active)
66	SYNDIG1	-1.51 (active)
67	SYNDIG1	-1.47
68	UBQLN4	-0.87
69	UBQLN4	-1.14
70	UBQLN4	-1.28
71	UBQLN4	0.03
72	PTP4A2	1.53
73	PTP4A2	2
74	PTP4A2	-0.75
75	PTP4A2	0.61
76	SLA2	-0.89
77	SLA2	-0.74
78	SLA2	-1.08
79	SLA2	-0.77
80	XPO5	0.61
81	XPO5	1.21
82	XPO5	0.92
83	XPO5	1.27
84	RXFP1	-0.19
85	RXFP1	-0.43
86	RXFP1	-0.27
87	RXFP1	-0.5
88	EMP1	2.47
89	EMP1	2.17
90	EMP1	1.82
91	EMP1	3.27 (active)
92	XKR4	-0.71
93	XKR4	-1.01
94	XKR4	-0.25
95	XKR4	0.09
96	POU3F1	0.15
97	POU3F1	0.91
98	POU3F1	0.27
99	POU3F1	0.26
100	SLC25A23	0.59
101	SLC25A23	-0.17
102	SLC25A23	1.14
103	SLC25A23	1.38
104	URI1	-1.01
105	URI1	-0.68
106	URI1	-0.3
107	URI1	0.14
108	POLR2D	-1.12
109	POLR2D	-0.64
110	POLR2D	-0.03
111	POLR2D	-0.85
